These are yes or no findings as the source states them, for the method shown. Some results given as binding are weak or reduced against the parent protein; the word gives no strength.
Legend:
[1] = biological target: human ATP6V1B2 on the surface of senescent human cells (IMR-90 lung fibroblasts, IPF lung fibroblasts, A549 lung adenocarcinoma cells) (human) (UniProt P21281); test: FACS, senescent IMR-90 cells, compared with commercial antibodies
[2] = biological target: human ATP6V1B2 on the surface of senescent human cells (IMR-90 lung fibroblasts, IPF lung fibroblasts, A549 lung adenocarcinoma cells) (human) (UniProt P21281); test: FACS, non-permeabilized senescent IMR-90 cells, antibody at 10 ug/ml
[3] = biological target: mouse ATP6V1B2 on the surface of senescent mouse lung fibroblasts (CCL-206) (mouse) (UniProt P62814); test: FACS, non-permeabilized senescent CCL-206 cells, antibody at 10 ug/ml
[4] = biological target: mouse ATP6V1B2 on the surface of senescent mouse lung fibroblasts (CCL-206) (mouse) (UniProt P62814); test: FACS, senescent CCL-206 cells, compared with commercial antibodies

Amino acid sequences for entries named in this document (tags omitted).
UniProt P21281: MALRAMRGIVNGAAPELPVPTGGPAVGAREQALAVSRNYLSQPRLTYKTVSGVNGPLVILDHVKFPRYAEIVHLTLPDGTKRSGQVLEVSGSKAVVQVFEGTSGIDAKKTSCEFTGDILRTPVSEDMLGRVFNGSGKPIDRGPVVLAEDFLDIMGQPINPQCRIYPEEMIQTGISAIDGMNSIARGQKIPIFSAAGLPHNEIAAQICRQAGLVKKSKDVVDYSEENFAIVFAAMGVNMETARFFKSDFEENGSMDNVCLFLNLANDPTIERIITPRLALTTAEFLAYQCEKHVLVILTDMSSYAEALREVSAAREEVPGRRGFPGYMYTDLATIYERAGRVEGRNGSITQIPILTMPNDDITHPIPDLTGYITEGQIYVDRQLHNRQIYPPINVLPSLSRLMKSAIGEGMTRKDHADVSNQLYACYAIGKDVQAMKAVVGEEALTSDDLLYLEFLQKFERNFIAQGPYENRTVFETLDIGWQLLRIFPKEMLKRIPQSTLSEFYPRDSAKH
UniProt P62814: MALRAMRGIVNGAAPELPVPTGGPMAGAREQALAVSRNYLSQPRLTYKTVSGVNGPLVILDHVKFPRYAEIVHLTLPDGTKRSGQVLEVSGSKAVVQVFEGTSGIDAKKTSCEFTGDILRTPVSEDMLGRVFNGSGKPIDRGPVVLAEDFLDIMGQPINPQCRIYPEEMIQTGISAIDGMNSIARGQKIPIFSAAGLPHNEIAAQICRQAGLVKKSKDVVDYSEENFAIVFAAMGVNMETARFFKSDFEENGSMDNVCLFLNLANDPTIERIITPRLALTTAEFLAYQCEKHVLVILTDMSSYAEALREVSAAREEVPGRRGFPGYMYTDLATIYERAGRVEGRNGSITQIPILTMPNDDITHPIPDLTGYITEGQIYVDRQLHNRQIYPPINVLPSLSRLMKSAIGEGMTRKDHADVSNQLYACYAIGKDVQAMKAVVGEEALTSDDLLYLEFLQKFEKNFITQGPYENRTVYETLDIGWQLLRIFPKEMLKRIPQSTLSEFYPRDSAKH

Measured: binding

B1: anti-ATP6V1B2 antibody 4G06 (antibody, V domains shown)
VH: QVQLQQSGAELVKPGASVKVSCKASGYTFTNYWMHWVRQRPGQGLEWIGRIDPSDSDTNYTQKFKGKATLTVDKSSNTAYMQVSSLTSEDFAVYYCAELGTFDYWGQGTSLTVSV
VL: DIVMTQTPLSLPVSLGDQASIYCRSSRSLVHSNGKTYLHWYQQKPGQSPKLLIYKVSNRFSGVPDRFSGSGSGTDFTLKISRVEAEDLGVYFCSQSTHVPWTFGGGTKLEIK
binds: [1] | [2] | [3] | [4]

Reference: patent publication US20250136708A1 (YEDA RESEARCH AND DEVELOPMENT, published 2025)
